No constants are given. Whether binding was seen depends on the method and setting. Binding seen in cells or lysates may run through a third protein. A result given as binding can be weak or reduced; the word gives no strength. Tags and fused reporters may be left off the sequences shown.
Target: PDZ domain of neuronal nitric oxide synthase (nNOS), Rluc PCA fusion (UniProt P29476)
Assay: split reporter; Rluc PCA in S. cerevisiae MATa cells grown in galactose medium; about 1 x 10^6 cells, 10 uM benzyl-coelenterazine; with glucose (100 mM) or galactose

Chains of the proteins cited; added tags and fusions are not shown. Lines headed by an entry give the natural chain unless they say otherwise; changes in a name come on top.
UniProt P29476: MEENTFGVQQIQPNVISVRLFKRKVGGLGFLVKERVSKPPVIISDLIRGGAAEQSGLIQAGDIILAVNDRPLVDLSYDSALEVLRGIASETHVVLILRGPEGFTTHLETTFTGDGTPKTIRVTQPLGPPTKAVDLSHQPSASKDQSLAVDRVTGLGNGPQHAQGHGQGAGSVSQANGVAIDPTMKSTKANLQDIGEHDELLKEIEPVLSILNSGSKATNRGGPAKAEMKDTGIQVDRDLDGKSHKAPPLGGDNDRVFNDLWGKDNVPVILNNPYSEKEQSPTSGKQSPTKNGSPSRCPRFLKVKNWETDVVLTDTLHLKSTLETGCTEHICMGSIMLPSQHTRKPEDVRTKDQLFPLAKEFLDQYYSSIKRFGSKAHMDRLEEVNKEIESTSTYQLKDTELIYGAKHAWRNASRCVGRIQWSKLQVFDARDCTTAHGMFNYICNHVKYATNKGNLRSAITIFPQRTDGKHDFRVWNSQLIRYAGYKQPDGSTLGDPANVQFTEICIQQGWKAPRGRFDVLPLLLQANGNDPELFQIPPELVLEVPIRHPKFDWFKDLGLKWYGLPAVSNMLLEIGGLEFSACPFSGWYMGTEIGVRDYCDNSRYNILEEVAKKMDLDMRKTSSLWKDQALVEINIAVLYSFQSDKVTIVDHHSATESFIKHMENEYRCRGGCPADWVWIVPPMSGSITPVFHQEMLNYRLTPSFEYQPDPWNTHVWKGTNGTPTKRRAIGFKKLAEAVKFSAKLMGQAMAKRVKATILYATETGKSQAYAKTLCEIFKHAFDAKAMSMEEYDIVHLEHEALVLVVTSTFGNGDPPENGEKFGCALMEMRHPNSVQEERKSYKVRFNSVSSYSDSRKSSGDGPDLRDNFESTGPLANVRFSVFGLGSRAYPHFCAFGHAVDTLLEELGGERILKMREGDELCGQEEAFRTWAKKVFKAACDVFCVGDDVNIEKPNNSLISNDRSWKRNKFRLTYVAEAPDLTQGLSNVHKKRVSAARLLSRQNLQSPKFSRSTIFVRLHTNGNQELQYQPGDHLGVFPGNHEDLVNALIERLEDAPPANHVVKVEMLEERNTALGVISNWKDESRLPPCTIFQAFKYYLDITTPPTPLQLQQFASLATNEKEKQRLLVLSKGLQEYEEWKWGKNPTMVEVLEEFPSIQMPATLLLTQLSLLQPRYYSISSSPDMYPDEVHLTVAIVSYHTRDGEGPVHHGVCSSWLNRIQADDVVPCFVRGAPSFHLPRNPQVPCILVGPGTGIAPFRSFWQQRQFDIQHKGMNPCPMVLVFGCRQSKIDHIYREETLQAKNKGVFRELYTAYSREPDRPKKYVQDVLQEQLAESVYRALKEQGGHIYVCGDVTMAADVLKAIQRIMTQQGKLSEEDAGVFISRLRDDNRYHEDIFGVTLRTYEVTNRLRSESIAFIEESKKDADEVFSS

binding: binds
B1: PDZ domain of aSyntrophin (aSyn), Rluc PCA fusion (domain or fragment, UniProt Q61234 81-164)
chain: RVTVRKADAGGLGISIKGGRENKMPILISKIFKGLAADQTEALFVGDAILSVNGEDLSSATHDEAVQALKKTGKEVVLEVKYMK
